Among all 390,000 compounds or so, about 4,000 (1%) were called active. The inconclusive results got no clear call from the source; some entries with a clear call stand among them for comparison. The call rests on the fitted dose curve; in most records, active means well fitted inhibition curve with a large enough effect; inconclusive means small, poorly fitted or top-dose-only effect, or another doubt; inactive means no such curve, though single readings can be large or run the other way. Where the call is inconclusive, the potency comes from a doubtful curve fit.
Molecular target: DNA polymerase iota (Homo sapiens) (UniProt Q9UNA4)
Assay: qHTS for Inhibitors of Polymerase Iota
Settings: Pol iota fluorescent replication assay, 10 min; series mostly up to 115 µM
Outline: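 Pol iota at 10 nM preincubated 15 min with compounds at room temperature; reaction started with fluorescent substrate, 50 nM final. Fluorescence read kinetically at 0 and 10 min; buffer-only wells as negative control.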
Potency means the concentration at half of the fitted maximal effect.

The chains behind the UniProt entries cited, without tags or fusion partners. Where a name states a change or a piece, a line headed by the entry shows the natural chain unless it says otherwise.
UniProt Q9UNA4: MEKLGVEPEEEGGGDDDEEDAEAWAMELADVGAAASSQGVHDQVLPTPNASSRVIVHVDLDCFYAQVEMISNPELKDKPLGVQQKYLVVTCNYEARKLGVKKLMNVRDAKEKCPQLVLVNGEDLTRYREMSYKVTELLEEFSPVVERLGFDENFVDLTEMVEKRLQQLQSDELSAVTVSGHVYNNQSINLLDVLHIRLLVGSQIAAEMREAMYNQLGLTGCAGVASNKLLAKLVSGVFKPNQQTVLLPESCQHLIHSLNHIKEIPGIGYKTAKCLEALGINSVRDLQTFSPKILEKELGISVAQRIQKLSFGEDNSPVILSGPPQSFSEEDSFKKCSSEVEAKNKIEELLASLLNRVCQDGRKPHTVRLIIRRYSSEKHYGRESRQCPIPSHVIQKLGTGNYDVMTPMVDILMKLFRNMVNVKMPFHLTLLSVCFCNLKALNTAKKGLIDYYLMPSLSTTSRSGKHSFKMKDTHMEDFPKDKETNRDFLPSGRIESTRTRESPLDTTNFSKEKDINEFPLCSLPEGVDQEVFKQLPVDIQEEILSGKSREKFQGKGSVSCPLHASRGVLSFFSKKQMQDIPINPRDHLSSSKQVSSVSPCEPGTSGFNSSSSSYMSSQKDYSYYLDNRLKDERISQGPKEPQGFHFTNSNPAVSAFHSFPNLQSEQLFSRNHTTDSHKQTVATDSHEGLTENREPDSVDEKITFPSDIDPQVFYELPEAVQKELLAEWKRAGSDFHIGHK

**Q.** Which Potency does the source give for `COc1ccc(NC(=O)CN2CCN(Cc3ccc(F)cc3)S2(=O)=O)cc1Cl` here?
**A.** inactive

**Q.** `Cc1nc(SCC(C)C)[nH]c(=O)c1Cc1ccccc1` was tested. Which Potency did it give?
**A.** inconclusive: 0.355 µM [inhibitor, full curve, poor fit]

**Q.** Which Potency does the source give for `CCCN(CCC)CC(O)Cn1cc(/C=C/C(=O)c2ccc(C)cc2)c2ccccc21` (stereo not given) here?
**A.** inconclusive: 0.631 µM [inhibitor, full curve, poor fit]

**Q.** How did the Potency turn out when `N#CC1=C(c2ccccc2)/C(=C/c2ccccc2)OC1=O` was run?
**A.** inconclusive: 14.1 µM [inhibitor, partial curve]

**Q.** For `CC1=[N+]([O-])C(C)(C)N(O)C1(C)C`, which Potency is on record?
**A.** inactive

**Q.** For `O=S(=O)(c1ccc(Cl)cc1)c1snnc1-c1ccccc1`, which Potency is on record?
**A.** inconclusive: 22.4 µM [inhibitor, partial curve, poor fit]

**Q.** With `Cc1ccc(-n2c3nc(=O)[nH]c(=O)c-3cc3c(C)nn(-c4ccccc4)c32)cc1Cl` as the molecule, how does the Potency read?
**A.** inactive

**Q.** For `Cc1cc(C)c(S(C)(=O)=O)c(Oc2ccccc2C)n1`, which Potency is on record?
**A.** inconclusive: 112 µM [inhibitor, partial curve, poor fit]

**Q.** For `O=c1oc(/C=C/c2ccco2)nc2sc3c(c12)CCC3`, which Potency is on record?
**A.** inconclusive: 56.2 µM [inhibitor, partial curve, poor fit]

**Q.** `COc1ccc(/C(=C/c2ccc(OC(F)F)c(OC)c2)C(=O)O)cc1OC` was tested. Which Potency did it give?
**A.** inactive

**Q.** Which Potency does the source give for `O=C(O)c1cc(-n2cccc2)ccc1N1CCOCC1` here?
**A.** inactive

**Q.** `COc1ccc(N2Cc3cccc(C(=O)Nc4cc(C)cc(C)c4)c3C2=O)cc1` was tested. Which Potency did it give?
**A.** active: 70.8 µM

**Q.** Which Potency does the source give for `O=[N+]([O-])c1cccc(-c2csc(N/N=C/c3cccc(O)c3)n2)c1` here?
**A.** active: 44.7 µM

**Q.** Which Potency does the source give for `CCN(CC)S(=O)(=O)c1nnc(NC(=O)COc2ccccc2F)s1` here?
**A.** inactive

**Q.** How did the Potency turn out when `Cc1cc(NC(=O)c2cnn(-c3ccccc3)c2-n2cccc2)ccc1Br` was run?
**A.** inconclusive: 89.1 µM [inhibitor, partial curve, poor fit]

**Q.** For `COc1ccc(/C(O)=C2/C(=O)C(=O)N(c3ccccn3)C2c2ccc(OC)cc2)cc1` (stereo not given), which Potency is on record?
**A.** inconclusive: 25.1 µM [inhibitor, partial curve, poor fit]

**Q.** With `CC1Sc2ccc(S(=O)(=O)CCC(=O)NC(C)c3ccccc3)cc2NC1=O` (stereo not given) as the molecule, how does the Potency read?
**A.** inconclusive: 50.1 µM [inhibitor, partial curve]

**Q.** Which Potency does the source give for `Cn1c(C(=O)NCc2ccccc2Cl)cc2sc(Cl)cc21` here?
**A.** inactive

**Q.** `Oc1ccc(C(=S)N2CCN(Cc3ccccc3)CC2)cc1` was tested. Which Potency did it give?
**A.** inconclusive: 8.91 µM [inhibitor, partial curve, poor fit]

**Q.** For `O=c1[nH]c(=S)[nH]cc1Oc1ccc(Br)cc1Br`, which Potency is on record?
**A.** inconclusive: 22.4 µM [inhibitor, full curve, poor fit]
